# Experimental data as given in US10526389B2, “Peptides and combinations of peptides for use in immunotherapy against lung cancer, including NSCLC and other cancers” (Immatics Biotechnologies GmbH, priority 2015, dated 2020).
# Tested on: HLA-A*02-positive lung cancer (NSCLC) samples
# Assay: Relative LC-MS quantitation of HLA-A*02 peptide presentation on tumors vs normal tissues
# Set-up: species or system human; key to Peptide Presentation (presentation score): very highly over-presented on tumors compared to a panel of normal tissues (+++); highly over-presented on tumors compared to a panel of normal (healthy) tissues (++); over-presented on tumors compared to a panel of normal tissues (+)
# Settings: FIG. 1A, 1B legends; A*02
row,Substance,"peptide was also found on (other cancers, not shown)"
1,13 (FLFDGSANL; listed as Homo sapiens) [compound 13],"prostate cancer, breast cancer, colorectal cancer, hepatic cancer, melanoma, ovarian cancer, esophageal cancer, pancreatic cancer, gastric cancer"

# Same assay, conditions: HLA-A*02 peptides, amendment of Table 9; >5% of measured tumor samples or ratio of geometric means tumor vs normal >3
row,Substance,Additional Entities (additional tumor types showing over-presentation)
1,109 (NLIEVNEEV; listed as Homo sapiens) [compound 109],"CLL, AML"
2,98 (VLYPHEPTAV; listed as Homo sapiens) [compound 98],"SCLC, BRCA, Esophageal Cancer, Urinary bladder cancer, NHL"
3,15 (ELDRTPPEV; listed as Homo sapiens) [compound 15],"SCLC, PC, CLL, Esophageal Cancer, Urinary bladder cancer, Uterine Cancer, Gallbladder Cancer, Bile Duct Cancer, AML, NHL"
4,100: peptide found in BUB1B (gene looked up) (KIVDFSYSV; listed as Homo sapiens) [compound 100],"SCLC, BRCA, Melanoma, Urinary bladder cancer, Uterine Cancer"
5,20 (LMTKEISSV; listed as Homo sapiens) [compound 20],"OC, Esophageal Cancer, Urinary bladder cancer, Gallbladder Cancer, Bile Duct Cancer"
6,103 (KLLSDPNYGV; listed as Homo sapiens) [compound 103],"BRCA, Melanoma, Urinary bladder cancer, Gallbladder Cancer, Bile Duct Cancer"
7,13 (FLFDGSANL; listed as Homo sapiens) [compound 13],"SCLC, GC, Melanoma, OC, Urinary bladder cancer, Gallbladder Cancer, Bile Duct Cancer"
8,22 (NLINQEIML; listed as Homo sapiens) [compound 22],"BRCA, Melanoma, Urinary bladder cancer"
9,18 (ILLTEQINL; listed as Homo sapiens) [compound 18],"SCLC, Melanoma, Gallbladder Cancer, Bile Duct Cancer"
10,102 (SLLSELQHA; listed as Homo sapiens) [compound 102],"SCLC, Melanoma, Uterine Cancer, Gallbladder Cancer, Bile Duct Cancer, NHL"
11,21 (VLSSGLTAA; listed as Homo sapiens) [compound 21],"CRC, BRCA, Urinary bladder cancer, Uterine Cancer"

# Same assay, conditions: HLA-A*02 peptides; over-presented on >5% of measured tumour samples, or presented on >5% with ratio of geometric means tumour vs normal >3
row,Substance,Other relevant organs/diseases (additional tumour types on which the peptide was found)
1,98 (VLYPHEPTAV; listed as Homo sapiens) [compound 98],"Kidney, Brain, Colon, Rectum, Liver, MCC, Melanoma, Ovary"
2,15 (ELDRTPPEV; listed as Homo sapiens) [compound 15],"Kidney, Brain, Liver, Leukocytes"
3,136 (ALVDHTPYL; listed as Homo sapiens) [compound 136],"Kidney, Liver, Pancreas"
4,100: peptide found in BUB1B (gene looked up) (KIVDFSYSV; listed as Homo sapiens) [compound 100],"Brain, Colon, Rectum, MCC, Ovary"
5,157 (KLFGEKTYL; listed as Homo sapiens) [compound 157],Esophagus
6,114 (AMSSKFFLV; listed as Homo sapiens) [compound 114],"Brain, Stomach, Colon, Rectum, Liver, Pancreas, Prostate, Ovary, Esophagus"
7,20 (LMTKEISSV; listed as Homo sapiens) [compound 20],"Brain, Liver, Melanoma"
8,103 (KLLSDPNYGV; listed as Homo sapiens) [compound 103],"Brain, Pancreas"
9,13 (FLFDGSANL; listed as Homo sapiens) [compound 13],"Colon, Rectum, Pancreas, Breast, Esophagus"
10,148 (ALFGALFLA; listed as Homo sapiens) [compound 148],"Melanoma, Ovary"
11,134 (TLWYRAPEV; listed as Homo sapiens) [compound 134],"Stomach, Melanoma, Ovary"
12,124 (NLLDLDYEL; listed as Homo sapiens) [compound 124],"Stomach, Colon, Rectum, Pancreas, Breast, Ovary, Esophagus"
13,147 (VLFPNLKTV; listed as Homo sapiens) [compound 147],Kidney
14,152 (ILQDRLNQV; listed as Homo sapiens) [compound 152],"Colon, Rectum, Liver, Ovary"
15,144 (KIFDEILVNA; listed as Homo sapiens) [compound 144],"Stomach, Colon, Rectum, Melanoma, Ovary, Esophagus"
16,139 (SLIEDLILL; listed as Homo sapiens) [compound 139],"Kidney, Brain, Colon, Rectum, Liver, Pancreas, Prostate, Melanoma, Ovary, Esophagus"
17,145 (AMTQLLAGV; listed as Homo sapiens) [compound 145],"Brain, Colon, Rectum, Breast, Esophagus"
18,123 (GLTDNIHLV; listed as Homo sapiens) [compound 123],"Kidney, Colon, Rectum, Pancreas, Ovary, Esophagus"
19,153 (ALYDSVILL; listed as Homo sapiens) [compound 153],"Stomach, Prostate, Esophagus"
20,18 (ILLTEQINL; listed as Homo sapiens) [compound 18],"Kidney, Stomach, Liver, Pancreas, Prostate, Breast, Ovary, Esophagus"
21,102 (SLLSELQHA; listed as Homo sapiens) [compound 102],"Kidney, Breast, Ovary, Esophagus"
22,155 (ALDENLHQL; listed as Homo sapiens) [compound 155],Esophagus
23,128 (TLSSIKVEV; listed as Homo sapiens) [compound 128],"Kidney, Stomach, Colon, Rectum, Pancreas, Prostate, Breast, Melanoma, Ovary"
24,138 (ALNEEAGRLLL; listed as Homo sapiens) [compound 138],"Kidney, Brain, Stomach, Colon, Rectum, Liver, Pancreas, MCC, Melanoma, Ovary, Esophagus"
25,104 (SLVAVELEKV; listed as Homo sapiens) [compound 104],"Brain, Liver, Pancreas, MCC, Ovary, Esophagus"
26,21 (VLSSGLTAA; listed as Homo sapiens) [compound 21],"Liver, Esophagus"
27,146 (FQYDHEAFL; listed as Homo sapiens) [compound 146],"Kidney, Stomach, Colon, Rectum, Pancreas, Melanoma, Esophagus"
28,118 (SLHFLILYV; listed as Homo sapiens) [compound 118],"Kidney, Brain, Colon, Rectum, Liver, Melanoma, Ovary"
29,141 (NLIEKSIYL; listed as Homo sapiens) [compound 141],Esophagus
30,150 (GVLENIFGV; listed as Homo sapiens) [compound 150],"Kidney, Brain, Liver, Ovary, Esophagus"

# Same assay, conditions: HLA-A*02 peptides; tumors compared to a panel of normal tissues
row,Substance,Peptide Presentation (presentation score)
1,MXRA5-001 (TLSSIKVEV; listed as Homo sapiens),+++
2,MCM5-001 (ALSGTLSGV; listed as Homo sapiens),++
3,PCNXL3-001 (GVLENIFGV; listed as Homo sapiens),+
4,DUSP4-001 (FVFSFPVSV; listed as Homo sapiens),+
5,TGFBI-001 (ALFVRLLALA; listed as Homo sapiens),++
6,TACC3-001 (KLVEFDFLGA; listed as Homo sapiens),+
7,VLLPVEVATHYL (listed as Homo sapiens) [SEQ ID No. 142],+
8,KIFDEILVNA (listed as Homo sapiens) [SEQ ID No. 144],+
9,FZD-001 (VLAPLFVYL; listed as Homo sapiens),++
10,CDK4-001 (TLWYRAPEV; listed as Homo sapiens),+
11,KIQEMQHFL (listed as Homo sapiens) [SEQ ID No. 116],+++
12,UBE2S-001 (ALNEEAGRLLL; listed as Homo sapiens),++
13,IVAESLQQV (listed as Homo sapiens) [SEQ ID No. 105],+
14,ILLTEQINL (listed as Homo sapiens) [SEQ ID No. 18],+
15,ERO-001 (LLLEILHEI; listed as Homo sapiens),+
16,TLFPVRLLV (listed as Homo sapiens) [SEQ ID No. 97],+
17,MXRA5-002 (GLTDNIHLV; listed as Homo sapiens),++
18,ALVQDLAKA (listed as Homo sapiens) [SEQ ID No. 131],+
19,SF3B3-001 (ELDRTPPEV; listed as Homo sapiens),+
20,LIFDLGGGTFDV (listed as Homo sapiens) [SEQ ID No. 16],+
21,ILQDRLNQV (listed as Homo sapiens) [SEQ ID No. 152],+
22,LIQDRVAEV (listed as Homo sapiens) [SEQ ID No. 14],+
23,ATP-001 (SLHFLILYV; listed as Homo sapiens),+
24,WNT5A-001 (AMSSKFFLV; listed as Homo sapiens),++
25,RCN1-001 (FQYDHEAFL; listed as Homo sapiens),++
26,KILEDVVGV (listed as Homo sapiens) [SEQ ID No. 130],+
27,COL6A3-007 (FLYDVVKSL; listed as Homo sapiens),++
28,RAD54B-001 (SLYKGLLSV; listed as Homo sapiens),+++
